Measured values taken from patent US20210054055A1.
No constants are given. Whether binding was seen depends on the method and setting. Some entries that bind do so weakly or less than the wild type.

Tests used:
[1] = biological target: ZVEDI, recombinant ZIKV E domain I (Zika virus); test: ELISA on recombinant ZVEDI
[2] = biological target: ZVEDI, recombinant ZIKV E domain I (Zika virus); test: ELISA on recombinant antigens
[3] = biological target: ZVEDI, recombinant ZIKV E domain I (Zika virus); test: ELISA on recombinant ZIKV antigens (FIG. 9)

Measured: binding

B1: Anti-ZIKV clone DT168(A)-D1_A-9E (A9E) (antibody, V domains shown)
VH: EVQLLESGGGLVQAGGSLRLSCAASGFTFDTYAMSWVRQPPGKGLEWVSAISTGGGSKYYADSVKGRLTISRDNSQNTLYLQMSSLRADDTAVYYCARSDFWRSGRYYYYMDVWGRGTTVTVSS
VL: QSALTQPASVSASPGQSITISCTGTHFDIVDYDYLSWYQQHPGNAPKLLIYGVSNRPSGVSSRFSGSKSGNTASLTISGLQAEDEGDYYCSSYSISSTLLVFGGGTKLSV
binds: all assays above
